Assay results reported in the supplement of paper PMC7666118.
The list shows a part of the results.

The chains behind the UniProt entries cited, without tags or fusion partners. Where a name states a change or a piece, a line headed by the entry shows the natural chain unless it says otherwise.
UniProt Q9BRP4: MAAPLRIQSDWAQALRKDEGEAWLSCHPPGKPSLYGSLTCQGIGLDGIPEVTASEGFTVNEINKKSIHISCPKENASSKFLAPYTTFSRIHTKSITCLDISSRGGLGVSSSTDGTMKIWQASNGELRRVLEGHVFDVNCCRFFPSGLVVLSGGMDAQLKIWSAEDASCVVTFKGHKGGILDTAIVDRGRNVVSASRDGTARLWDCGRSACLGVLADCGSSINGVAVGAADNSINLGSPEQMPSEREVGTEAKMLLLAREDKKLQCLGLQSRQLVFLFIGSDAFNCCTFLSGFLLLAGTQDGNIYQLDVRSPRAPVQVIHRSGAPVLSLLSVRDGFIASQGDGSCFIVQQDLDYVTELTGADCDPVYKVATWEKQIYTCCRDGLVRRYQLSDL
UniProt Q5JVF3: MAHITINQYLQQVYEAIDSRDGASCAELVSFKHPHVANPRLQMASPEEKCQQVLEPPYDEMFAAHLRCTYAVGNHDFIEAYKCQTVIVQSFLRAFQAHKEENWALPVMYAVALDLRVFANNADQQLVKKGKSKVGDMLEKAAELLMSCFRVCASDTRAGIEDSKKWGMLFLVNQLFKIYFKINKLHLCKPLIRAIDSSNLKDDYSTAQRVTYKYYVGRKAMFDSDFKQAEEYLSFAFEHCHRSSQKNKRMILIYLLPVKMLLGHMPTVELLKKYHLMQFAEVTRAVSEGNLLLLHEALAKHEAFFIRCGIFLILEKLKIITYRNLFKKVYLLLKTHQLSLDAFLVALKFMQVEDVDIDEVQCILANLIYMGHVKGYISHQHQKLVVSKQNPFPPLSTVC
UniProt Q9NTI5: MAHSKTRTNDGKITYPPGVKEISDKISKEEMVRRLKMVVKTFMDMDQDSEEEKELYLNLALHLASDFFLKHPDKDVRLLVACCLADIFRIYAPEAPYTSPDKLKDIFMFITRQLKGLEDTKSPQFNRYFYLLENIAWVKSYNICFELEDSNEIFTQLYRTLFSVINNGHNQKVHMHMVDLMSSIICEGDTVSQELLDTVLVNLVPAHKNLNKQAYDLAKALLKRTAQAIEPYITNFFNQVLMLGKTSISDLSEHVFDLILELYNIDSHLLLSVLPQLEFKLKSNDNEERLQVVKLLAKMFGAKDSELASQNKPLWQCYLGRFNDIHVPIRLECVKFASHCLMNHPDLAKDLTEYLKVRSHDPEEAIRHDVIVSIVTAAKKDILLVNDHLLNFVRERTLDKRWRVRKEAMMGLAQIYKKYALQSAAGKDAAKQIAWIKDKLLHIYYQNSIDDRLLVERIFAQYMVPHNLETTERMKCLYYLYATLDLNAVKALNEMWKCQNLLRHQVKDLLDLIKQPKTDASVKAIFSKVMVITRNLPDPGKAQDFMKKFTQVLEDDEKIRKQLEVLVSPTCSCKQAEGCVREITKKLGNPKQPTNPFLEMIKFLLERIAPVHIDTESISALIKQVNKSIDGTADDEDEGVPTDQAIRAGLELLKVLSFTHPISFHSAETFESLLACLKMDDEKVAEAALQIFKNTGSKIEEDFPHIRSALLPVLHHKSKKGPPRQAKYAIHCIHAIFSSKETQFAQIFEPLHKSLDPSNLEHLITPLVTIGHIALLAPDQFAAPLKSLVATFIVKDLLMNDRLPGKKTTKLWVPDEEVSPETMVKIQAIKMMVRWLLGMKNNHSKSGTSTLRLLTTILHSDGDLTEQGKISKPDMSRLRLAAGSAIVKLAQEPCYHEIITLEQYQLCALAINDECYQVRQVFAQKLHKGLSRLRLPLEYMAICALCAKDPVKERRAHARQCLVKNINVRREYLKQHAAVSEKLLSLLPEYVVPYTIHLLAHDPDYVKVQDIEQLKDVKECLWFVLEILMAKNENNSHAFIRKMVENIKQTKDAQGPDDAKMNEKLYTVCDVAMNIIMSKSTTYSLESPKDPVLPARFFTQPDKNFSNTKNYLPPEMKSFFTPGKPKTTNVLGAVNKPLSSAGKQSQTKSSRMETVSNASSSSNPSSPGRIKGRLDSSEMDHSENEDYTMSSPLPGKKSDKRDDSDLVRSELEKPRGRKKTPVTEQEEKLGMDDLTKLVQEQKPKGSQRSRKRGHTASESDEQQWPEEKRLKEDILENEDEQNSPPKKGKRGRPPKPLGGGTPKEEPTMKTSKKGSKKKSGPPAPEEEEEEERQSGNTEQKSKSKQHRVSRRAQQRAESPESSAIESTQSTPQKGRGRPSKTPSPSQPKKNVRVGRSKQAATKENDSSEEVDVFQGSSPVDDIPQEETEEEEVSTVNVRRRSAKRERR
UniProt O95453: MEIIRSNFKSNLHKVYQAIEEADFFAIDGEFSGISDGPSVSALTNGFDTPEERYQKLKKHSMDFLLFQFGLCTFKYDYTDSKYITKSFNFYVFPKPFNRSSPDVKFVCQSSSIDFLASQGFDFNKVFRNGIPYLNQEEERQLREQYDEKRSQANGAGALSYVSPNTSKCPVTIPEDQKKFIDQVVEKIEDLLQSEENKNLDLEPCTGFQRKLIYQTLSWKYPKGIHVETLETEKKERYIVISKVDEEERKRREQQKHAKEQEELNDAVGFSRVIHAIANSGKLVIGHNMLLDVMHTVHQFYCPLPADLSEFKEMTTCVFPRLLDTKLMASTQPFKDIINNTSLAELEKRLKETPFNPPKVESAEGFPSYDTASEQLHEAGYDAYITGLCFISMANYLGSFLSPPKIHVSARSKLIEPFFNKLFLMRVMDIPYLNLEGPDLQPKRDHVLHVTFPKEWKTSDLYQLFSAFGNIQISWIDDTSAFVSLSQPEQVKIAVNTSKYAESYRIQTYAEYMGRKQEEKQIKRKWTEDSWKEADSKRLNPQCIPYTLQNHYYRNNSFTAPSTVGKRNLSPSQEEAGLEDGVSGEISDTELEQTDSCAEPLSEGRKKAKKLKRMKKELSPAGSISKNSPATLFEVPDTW
UniProt Q9H4L5: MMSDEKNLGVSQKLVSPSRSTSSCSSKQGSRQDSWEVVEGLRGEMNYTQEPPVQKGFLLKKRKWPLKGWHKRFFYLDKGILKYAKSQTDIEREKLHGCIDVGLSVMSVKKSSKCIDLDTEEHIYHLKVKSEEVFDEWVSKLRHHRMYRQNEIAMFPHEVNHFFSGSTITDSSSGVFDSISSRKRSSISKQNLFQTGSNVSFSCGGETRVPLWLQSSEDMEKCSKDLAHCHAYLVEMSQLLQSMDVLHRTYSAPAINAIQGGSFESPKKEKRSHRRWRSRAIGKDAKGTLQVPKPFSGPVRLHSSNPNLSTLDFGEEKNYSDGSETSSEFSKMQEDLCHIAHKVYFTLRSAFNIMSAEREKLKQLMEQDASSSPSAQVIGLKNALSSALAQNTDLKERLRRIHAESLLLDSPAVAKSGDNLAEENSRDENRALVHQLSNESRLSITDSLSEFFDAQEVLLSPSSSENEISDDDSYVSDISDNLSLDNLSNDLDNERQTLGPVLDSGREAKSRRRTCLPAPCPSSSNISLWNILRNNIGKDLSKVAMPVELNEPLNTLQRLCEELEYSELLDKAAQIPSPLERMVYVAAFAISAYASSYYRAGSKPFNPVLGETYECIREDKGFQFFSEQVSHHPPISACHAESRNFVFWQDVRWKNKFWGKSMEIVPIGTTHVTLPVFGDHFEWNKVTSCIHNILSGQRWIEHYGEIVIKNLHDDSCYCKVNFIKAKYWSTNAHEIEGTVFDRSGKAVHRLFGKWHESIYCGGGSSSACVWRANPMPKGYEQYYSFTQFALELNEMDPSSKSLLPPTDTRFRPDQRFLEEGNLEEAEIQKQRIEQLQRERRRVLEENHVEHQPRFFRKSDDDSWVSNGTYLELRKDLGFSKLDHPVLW
UniProt Q9UQ80: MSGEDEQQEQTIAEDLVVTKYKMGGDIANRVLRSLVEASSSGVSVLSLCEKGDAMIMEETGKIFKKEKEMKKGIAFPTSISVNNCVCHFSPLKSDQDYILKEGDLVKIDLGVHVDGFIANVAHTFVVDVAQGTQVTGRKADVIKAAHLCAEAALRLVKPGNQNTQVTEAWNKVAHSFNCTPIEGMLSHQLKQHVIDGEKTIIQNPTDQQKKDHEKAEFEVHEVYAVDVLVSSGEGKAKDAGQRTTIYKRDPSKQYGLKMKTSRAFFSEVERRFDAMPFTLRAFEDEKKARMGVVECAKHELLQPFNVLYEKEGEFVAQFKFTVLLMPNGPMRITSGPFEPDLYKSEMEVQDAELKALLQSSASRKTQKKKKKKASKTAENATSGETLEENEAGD
UniProt Q15084: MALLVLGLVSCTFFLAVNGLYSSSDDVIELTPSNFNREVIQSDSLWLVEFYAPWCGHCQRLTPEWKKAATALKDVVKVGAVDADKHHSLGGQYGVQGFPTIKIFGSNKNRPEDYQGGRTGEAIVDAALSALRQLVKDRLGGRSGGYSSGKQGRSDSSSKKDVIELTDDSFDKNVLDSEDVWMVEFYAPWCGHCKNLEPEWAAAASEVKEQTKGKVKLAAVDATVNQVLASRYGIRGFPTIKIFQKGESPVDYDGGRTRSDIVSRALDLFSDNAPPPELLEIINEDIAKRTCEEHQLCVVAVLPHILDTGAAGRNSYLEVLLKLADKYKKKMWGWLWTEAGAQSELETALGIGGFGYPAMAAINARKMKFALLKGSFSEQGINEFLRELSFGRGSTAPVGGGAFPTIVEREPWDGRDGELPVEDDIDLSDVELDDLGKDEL
UniProt Q13416: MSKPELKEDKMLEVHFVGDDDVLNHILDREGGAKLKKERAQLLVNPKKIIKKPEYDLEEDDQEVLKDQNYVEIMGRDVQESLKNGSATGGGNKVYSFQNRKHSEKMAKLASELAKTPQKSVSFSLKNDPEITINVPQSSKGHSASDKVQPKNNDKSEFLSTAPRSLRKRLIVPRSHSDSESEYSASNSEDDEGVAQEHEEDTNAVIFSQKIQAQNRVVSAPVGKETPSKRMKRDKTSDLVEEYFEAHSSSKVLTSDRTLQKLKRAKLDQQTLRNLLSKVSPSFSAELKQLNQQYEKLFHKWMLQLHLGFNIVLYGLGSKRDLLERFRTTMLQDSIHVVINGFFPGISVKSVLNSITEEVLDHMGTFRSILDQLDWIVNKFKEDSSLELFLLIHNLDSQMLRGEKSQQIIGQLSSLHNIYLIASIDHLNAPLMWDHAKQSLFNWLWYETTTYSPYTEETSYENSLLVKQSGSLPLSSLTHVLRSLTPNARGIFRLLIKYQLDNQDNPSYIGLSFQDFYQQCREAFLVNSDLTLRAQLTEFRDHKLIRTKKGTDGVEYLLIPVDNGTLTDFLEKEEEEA
UniProt Q15118, whole entry, looked up: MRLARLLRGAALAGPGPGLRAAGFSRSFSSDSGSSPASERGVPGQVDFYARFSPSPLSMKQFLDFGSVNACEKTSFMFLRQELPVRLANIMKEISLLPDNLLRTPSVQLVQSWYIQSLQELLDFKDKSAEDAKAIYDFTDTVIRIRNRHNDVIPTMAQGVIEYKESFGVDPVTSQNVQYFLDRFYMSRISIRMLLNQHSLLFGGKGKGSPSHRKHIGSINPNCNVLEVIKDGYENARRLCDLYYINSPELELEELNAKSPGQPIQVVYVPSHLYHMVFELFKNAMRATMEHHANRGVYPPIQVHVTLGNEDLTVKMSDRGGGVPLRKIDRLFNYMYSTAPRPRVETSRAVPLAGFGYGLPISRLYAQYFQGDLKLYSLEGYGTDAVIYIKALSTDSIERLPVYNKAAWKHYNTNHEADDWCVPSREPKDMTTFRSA
UniProt Q9BZF3: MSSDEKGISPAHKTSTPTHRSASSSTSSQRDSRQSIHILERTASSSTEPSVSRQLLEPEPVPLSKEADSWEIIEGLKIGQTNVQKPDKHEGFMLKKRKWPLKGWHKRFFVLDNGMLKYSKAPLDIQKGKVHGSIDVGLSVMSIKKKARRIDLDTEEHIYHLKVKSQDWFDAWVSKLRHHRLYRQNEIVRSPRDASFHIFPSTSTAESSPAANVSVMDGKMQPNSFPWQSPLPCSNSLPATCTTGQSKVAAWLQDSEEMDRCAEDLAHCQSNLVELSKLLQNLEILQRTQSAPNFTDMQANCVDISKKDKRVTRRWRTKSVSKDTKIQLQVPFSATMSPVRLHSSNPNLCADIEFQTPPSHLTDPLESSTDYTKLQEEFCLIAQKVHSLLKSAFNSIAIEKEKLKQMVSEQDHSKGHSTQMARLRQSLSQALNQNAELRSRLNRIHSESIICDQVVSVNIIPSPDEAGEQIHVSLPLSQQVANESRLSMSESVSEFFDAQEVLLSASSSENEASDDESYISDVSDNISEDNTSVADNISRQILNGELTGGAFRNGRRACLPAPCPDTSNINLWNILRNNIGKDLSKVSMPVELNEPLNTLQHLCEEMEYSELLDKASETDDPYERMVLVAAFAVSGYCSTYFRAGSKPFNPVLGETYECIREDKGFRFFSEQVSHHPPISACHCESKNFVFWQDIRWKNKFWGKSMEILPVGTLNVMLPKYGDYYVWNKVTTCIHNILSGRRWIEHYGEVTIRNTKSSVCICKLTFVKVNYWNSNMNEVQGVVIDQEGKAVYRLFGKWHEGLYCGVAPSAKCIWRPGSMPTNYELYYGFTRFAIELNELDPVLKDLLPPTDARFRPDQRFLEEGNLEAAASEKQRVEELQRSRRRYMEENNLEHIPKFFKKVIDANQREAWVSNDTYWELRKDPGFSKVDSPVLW

Compound: COc1ccc(Cn2ccc3ccc(C(=O)NO)cc32)cc1
Experiment: dose-dependent thermal stabilisation call (2D-TPP, DLPTP, 10% FDR) (binary (1 = stabilised)); higher = stabilised by the compound
Settings: system: HL-60 intact cells; concentration range 0.04-10 µM

| Target | dose-dependent thermal stabilisation call |
| --- | --- |
| PCLO (UniProt Q9Y6V0) | inactive: 0 |
| PDCD10 (UniProt Q9BUL8) | inactive: 0 |
| PCYOX1L (UniProt Q8NBM8) | inactive: 0 |
| PDCD4 (UniProt Q53EL6) | inactive: 0 |
| NUDT3 (UniProt O95989) | inactive: 0 |
| PAG1 (UniProt Q9NWQ8) | inactive: 0 |
| PEX6 (UniProt Q13608) | inactive: 0 |
| OSBPL2 (UniProt Q9H1P3) | inactive: 0 |
| PARP4 (UniProt Q9UKK3) | inactive: 0 |
| OAS3 (UniProt Q9Y6K5) | inactive: 0 |
| PDCL (UniProt Q13371) | inactive: 0 |
| NUTF2 (UniProt P61970) | inactive: 0 |
| OBFC1 (UniProt Q9H668) | inactive: 0 |
| PDLIM5 (UniProt Q96HC4) | inactive: 0 |
| P4HTM (UniProt Q9NXG6) | inactive: 0 |
| NR2C2 (UniProt P49116) | inactive: 0 |
| PEF1 (UniProt Q9UBV8) | inactive: 0 |
| OS9 (UniProt Q13438) | inactive: 0 |
| PAK1 (UniProt Q13153) | inactive: 0 |
| PEX13 (UniProt Q92968) | inactive: 0 |
| PEBP1 (UniProt P30086) | inactive: 0 |
| PARD6B (UniProt Q9BYG5) | inactive: 0 |
| PAAF1 (UniProt Q9BRP4) | inactive: 0 |
| PES1 (UniProt O00541) | inactive: 0 |
| NUF2 (UniProt Q9BZD4) | inactive: 0 |

| Target | dose-dependent thermal stabilisation call |
| --- | --- |
| NUPL1 (UniProt Q9BVL2) | inactive: 0 |
| PCID2 (UniProt Q5JVF3) | inactive: 0 |
| PDS5B (UniProt Q9NTI5) | inactive: 0 |
| NR2C2AP (UniProt Q86WQ0) | inactive: 0 |
| PARN (UniProt O95453) | inactive: 0 |
| NUMA1 (UniProt Q14980) | inactive: 0 |
| NUP88 (UniProt Q99567) | inactive: 0 |
| PAICS (UniProt P22234) | inactive: 0 |
| PEX19 (UniProt P40855) | inactive: 0 |
| PAN3 (UniProt Q58A45) | inactive: 0 |
| PARS2 (UniProt Q7L3T8) | inactive: 0 |
| PCTP (UniProt Q9UKL6) | inactive: 0 |
| OSBPL3 (UniProt Q9H4L5) | inactive: 0 |
| PARL (UniProt Q9H300) | inactive: 0 |
| PDE3B (UniProt Q13370) | inactive: 0 |
| PFN1 (UniProt P07737) | inactive: 0 |
| PA2G4 (UniProt Q9UQ80) | inactive: 0 |
| PFDN6 (UniProt O15212) | inactive: 0 |
| PACS1 (UniProt Q6VY07) | inactive: 0 |
| NUP153 (UniProt P49790) | inactive: 0 |
| NUCB2 (UniProt P80303) | inactive: 0 |
| P4HB (UniProt P07237) | inactive: 0 |
| PDIA6 (UniProt Q15084) | inactive: 0 |
| P2RX4 (UniProt Q99571) | inactive: 0 |
| PARP16 (UniProt Q8N5Y8) | inactive: 0 |

| Target | dose-dependent thermal stabilisation call |
| --- | --- |
| ORC2L (UniProt Q13416) | inactive: 0 |
| OTUD4 (UniProt Q01804) | inactive: 0 |
| OCIAD2 (UniProt Q56VL3) | inactive: 0 |
| NUDT22 (UniProt Q9BRQ3) | inactive: 0 |
| NUB1 (UniProt Q9Y5A7) | inactive: 0 |
| PDHA1 (UniProt P08559) | inactive: 0 |
| PDK3 (UniProt Q15120) | inactive: 0 |
| PAK2 (UniProt Q13177) | inactive: 0 |
| OTUD5 (UniProt Q96G74) | inactive: 0 |
| PDK1 (UniProt Q15118) | inactive: 0 |
| PAFAH1B2 (UniProt P68402) | inactive: 0 |
| PCYOX1 (UniProt Q9UHG3) | inactive: 0 |
| ODF2 (UniProt Q5BJF6) | inactive: 0 |
| PECI (UniProt O75521) | inactive: 0 |
| PDLIM2 (UniProt Q96JY6) | inactive: 0 |
| PAK4 (UniProt O96013) | inactive: 0 |
| PDIA3 (UniProt P30101) | inactive: 0 |
| PABPC4 (UniProt Q13310) | inactive: 0 |
| NT5C (UniProt Q8TCD5) | inactive: 0 |
| OSBPL6 (UniProt Q9BZF3) | inactive: 0 |
| PDIA4 (UniProt P13667) | inactive: 0 |
| OCRL (UniProt Q01968) | inactive: 0 |
| PCM1 (UniProt Q15154) | inactive: 0 |
| PFDN5 (UniProt Q99471) | inactive: 0 |

5 consecutive entries out of the list so far, quoted:

| Target | dose-dependent thermal stabilisation call |
| --- | --- |
| NUB1 (UniProt Q9Y5A7) | inactive: 0 |
| PDHA1 (UniProt P08559) | inactive: 0 |
| PDK3 (UniProt Q15120) | inactive: 0 |
| PAK2 (UniProt Q13177) | inactive: 0 |
| OTUD5 (UniProt Q96G74) | inactive: 0 |
